Assay results from the supplement of paper PMC12067093, “Discovery and optimisation of a covalent ligand for TRIM25 and its application to targeted protein ubiquitination” (Chemical Science, 2025).
Some of the results follow.

Chains of the proteins cited; added tags and fusions are not shown. Lines headed by an entry give the natural chain unless they say otherwise; changes in a name come on top.
UniProt P01034: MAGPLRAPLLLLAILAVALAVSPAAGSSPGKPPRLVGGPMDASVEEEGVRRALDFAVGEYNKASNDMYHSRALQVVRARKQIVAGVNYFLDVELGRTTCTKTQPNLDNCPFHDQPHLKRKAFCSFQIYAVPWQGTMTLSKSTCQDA
UniProt Q9P2I0: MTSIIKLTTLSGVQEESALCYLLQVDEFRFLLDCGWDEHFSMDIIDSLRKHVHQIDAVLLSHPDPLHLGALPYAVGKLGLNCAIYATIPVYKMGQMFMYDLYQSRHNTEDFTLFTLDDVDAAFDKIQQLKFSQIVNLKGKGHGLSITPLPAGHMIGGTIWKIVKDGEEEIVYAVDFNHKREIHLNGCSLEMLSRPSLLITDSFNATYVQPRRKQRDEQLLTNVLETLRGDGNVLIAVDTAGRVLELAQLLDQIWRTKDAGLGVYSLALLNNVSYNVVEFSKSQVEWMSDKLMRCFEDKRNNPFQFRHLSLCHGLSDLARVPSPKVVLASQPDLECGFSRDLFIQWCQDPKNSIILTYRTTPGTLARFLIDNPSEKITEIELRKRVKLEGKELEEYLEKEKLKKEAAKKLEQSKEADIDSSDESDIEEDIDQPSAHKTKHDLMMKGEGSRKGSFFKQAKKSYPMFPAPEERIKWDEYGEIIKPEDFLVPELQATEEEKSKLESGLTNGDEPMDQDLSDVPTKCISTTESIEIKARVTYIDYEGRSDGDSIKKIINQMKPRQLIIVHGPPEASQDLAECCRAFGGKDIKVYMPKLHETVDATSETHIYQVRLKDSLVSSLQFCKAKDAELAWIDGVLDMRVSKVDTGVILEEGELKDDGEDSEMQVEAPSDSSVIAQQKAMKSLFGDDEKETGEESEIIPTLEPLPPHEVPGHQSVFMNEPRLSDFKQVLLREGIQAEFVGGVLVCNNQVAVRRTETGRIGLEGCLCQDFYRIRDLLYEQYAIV
UniProt O15320, whole entry, looked up: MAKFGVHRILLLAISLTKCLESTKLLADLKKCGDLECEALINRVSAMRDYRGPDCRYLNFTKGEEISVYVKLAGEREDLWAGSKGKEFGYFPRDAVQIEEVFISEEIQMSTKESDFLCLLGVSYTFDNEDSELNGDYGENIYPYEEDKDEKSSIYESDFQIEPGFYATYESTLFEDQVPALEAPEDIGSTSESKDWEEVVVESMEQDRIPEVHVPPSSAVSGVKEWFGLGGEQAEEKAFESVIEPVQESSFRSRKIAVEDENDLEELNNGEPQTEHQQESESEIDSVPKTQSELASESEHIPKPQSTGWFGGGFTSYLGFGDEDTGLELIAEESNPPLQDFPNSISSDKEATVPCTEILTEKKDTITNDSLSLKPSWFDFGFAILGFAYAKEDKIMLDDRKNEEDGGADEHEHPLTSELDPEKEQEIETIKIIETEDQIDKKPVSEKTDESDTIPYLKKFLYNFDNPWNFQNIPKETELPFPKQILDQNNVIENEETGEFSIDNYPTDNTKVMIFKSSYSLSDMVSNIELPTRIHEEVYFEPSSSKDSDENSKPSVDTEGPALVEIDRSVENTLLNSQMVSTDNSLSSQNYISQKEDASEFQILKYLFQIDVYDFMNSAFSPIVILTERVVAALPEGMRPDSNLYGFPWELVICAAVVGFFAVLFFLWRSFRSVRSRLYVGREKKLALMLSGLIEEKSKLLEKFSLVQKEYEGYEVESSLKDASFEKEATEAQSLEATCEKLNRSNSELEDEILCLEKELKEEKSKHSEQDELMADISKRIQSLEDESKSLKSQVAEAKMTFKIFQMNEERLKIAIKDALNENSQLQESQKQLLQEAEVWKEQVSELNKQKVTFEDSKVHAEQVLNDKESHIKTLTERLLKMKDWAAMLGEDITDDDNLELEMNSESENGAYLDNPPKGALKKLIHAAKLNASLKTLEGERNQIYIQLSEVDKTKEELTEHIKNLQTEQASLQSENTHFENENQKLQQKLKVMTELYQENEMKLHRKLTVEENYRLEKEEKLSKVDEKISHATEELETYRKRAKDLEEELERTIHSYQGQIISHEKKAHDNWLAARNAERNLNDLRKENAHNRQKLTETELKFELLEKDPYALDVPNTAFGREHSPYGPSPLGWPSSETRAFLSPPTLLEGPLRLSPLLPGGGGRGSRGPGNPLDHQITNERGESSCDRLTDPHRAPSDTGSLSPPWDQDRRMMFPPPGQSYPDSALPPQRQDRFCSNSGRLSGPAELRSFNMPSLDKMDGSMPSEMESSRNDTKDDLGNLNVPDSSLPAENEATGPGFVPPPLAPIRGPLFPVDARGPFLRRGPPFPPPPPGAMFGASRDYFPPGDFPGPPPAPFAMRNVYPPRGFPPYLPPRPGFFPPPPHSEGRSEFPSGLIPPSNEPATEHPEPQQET
UniProt Q05048: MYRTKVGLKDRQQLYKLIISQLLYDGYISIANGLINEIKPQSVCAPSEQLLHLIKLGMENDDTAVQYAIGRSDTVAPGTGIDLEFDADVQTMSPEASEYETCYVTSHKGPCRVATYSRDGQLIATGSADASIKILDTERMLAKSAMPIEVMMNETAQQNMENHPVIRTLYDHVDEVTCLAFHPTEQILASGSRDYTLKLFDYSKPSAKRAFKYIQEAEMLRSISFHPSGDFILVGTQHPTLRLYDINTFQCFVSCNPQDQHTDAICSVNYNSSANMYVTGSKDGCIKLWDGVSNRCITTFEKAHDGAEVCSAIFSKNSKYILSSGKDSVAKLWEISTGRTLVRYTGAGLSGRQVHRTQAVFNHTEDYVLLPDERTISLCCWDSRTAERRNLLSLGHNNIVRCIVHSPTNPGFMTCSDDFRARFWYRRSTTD
UniProt P23786: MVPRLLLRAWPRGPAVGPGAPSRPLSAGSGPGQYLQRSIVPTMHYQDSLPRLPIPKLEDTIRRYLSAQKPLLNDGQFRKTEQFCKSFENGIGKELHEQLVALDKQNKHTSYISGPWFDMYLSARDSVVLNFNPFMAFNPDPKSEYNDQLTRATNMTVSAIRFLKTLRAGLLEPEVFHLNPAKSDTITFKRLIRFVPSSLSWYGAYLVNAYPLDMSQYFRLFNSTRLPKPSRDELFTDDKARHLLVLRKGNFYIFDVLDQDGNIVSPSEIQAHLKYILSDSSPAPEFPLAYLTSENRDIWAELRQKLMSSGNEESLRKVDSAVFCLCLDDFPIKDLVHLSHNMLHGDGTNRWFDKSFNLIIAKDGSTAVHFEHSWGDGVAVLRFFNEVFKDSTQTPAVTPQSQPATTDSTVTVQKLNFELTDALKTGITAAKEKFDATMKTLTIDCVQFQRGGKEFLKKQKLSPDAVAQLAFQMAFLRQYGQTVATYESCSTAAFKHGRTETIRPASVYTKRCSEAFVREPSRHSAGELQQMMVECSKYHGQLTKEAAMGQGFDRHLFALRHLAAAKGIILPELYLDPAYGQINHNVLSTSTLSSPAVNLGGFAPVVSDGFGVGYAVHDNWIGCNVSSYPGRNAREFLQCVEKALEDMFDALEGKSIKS
UniProt P55060: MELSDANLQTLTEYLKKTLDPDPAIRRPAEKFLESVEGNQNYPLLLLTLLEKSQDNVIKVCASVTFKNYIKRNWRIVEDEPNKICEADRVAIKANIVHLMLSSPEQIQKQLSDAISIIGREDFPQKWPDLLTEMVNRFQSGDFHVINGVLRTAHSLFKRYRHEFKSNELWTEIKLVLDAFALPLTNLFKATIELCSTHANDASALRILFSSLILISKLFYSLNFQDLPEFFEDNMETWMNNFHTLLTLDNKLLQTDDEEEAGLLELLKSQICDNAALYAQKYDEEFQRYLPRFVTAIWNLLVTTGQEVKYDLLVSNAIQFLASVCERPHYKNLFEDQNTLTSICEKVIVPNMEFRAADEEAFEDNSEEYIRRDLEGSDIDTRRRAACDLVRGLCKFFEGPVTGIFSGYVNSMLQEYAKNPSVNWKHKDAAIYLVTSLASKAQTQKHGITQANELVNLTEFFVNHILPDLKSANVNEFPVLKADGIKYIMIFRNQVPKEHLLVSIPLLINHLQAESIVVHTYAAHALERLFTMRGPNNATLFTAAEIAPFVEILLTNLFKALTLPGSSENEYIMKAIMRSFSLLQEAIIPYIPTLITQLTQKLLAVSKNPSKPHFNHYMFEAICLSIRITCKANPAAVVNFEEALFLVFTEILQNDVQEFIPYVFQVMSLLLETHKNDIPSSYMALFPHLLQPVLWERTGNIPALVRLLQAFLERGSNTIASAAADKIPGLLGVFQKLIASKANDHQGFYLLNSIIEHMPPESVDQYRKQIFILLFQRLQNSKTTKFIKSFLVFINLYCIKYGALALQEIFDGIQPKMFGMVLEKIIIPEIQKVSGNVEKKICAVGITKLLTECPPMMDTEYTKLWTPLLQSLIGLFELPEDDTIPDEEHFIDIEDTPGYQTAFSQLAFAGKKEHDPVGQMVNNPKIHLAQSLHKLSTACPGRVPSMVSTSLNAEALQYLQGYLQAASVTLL
UniProt Q10570: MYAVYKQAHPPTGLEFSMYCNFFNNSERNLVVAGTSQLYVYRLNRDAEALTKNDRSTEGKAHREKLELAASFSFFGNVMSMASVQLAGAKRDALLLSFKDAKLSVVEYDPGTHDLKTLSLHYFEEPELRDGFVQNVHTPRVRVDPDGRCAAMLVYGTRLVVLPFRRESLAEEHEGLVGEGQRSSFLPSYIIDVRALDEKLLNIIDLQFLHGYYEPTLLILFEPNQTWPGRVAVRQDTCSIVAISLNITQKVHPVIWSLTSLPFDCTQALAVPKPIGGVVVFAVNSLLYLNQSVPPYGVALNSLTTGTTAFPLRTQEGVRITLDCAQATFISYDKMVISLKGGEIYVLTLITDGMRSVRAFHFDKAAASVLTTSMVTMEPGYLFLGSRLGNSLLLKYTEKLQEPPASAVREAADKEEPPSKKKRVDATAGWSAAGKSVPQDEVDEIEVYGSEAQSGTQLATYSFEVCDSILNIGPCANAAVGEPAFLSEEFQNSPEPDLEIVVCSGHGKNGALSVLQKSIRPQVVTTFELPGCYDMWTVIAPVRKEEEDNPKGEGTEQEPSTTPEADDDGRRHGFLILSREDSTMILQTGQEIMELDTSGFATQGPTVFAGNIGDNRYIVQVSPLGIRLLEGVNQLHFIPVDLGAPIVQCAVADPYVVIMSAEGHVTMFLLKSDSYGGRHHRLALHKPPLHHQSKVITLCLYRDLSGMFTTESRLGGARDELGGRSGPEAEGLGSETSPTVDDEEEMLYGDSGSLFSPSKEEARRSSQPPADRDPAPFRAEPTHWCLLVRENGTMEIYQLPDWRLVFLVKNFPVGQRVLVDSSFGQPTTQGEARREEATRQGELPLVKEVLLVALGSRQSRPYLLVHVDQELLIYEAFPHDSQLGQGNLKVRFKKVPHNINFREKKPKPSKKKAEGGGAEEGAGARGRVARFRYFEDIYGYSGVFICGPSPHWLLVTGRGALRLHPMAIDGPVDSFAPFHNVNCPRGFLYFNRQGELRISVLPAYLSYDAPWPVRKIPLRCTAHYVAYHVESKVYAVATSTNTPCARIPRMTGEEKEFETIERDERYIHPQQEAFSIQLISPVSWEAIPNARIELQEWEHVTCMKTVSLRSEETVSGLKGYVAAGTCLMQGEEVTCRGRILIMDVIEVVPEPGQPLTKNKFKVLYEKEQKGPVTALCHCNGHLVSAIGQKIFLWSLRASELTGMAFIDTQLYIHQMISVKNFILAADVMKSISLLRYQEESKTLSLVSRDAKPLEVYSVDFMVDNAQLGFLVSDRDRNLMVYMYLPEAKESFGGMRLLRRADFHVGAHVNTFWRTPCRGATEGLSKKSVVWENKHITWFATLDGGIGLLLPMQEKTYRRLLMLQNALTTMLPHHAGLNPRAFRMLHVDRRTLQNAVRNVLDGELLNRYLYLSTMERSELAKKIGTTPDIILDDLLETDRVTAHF
UniProt P21291: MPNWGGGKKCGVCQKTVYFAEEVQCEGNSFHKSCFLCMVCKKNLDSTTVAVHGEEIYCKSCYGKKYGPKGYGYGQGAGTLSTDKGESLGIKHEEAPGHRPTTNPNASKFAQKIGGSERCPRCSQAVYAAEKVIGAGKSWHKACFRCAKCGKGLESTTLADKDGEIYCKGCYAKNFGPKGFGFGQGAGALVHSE
UniProt P41240: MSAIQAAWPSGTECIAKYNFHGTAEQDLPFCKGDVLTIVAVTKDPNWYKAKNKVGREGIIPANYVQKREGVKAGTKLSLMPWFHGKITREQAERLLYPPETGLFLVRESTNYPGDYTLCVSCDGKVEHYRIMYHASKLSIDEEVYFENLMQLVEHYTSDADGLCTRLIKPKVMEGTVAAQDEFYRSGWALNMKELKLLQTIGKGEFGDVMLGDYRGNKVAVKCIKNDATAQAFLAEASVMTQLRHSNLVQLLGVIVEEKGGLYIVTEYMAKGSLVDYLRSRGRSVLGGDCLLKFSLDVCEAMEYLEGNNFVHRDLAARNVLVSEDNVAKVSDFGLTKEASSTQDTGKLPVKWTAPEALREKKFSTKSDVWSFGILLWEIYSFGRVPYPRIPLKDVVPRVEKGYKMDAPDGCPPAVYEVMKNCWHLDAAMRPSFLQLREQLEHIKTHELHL
UniProt P50238: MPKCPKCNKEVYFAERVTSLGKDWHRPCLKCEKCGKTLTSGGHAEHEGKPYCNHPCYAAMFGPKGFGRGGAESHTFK

Compound: Cc1cc(ccc1-c1ccccc1)C(=O)N1CCCN(CC1)C(=O)CCl [compound 10]
Assay: probe-labelled cysteine peptide fold change vs DMSO (competition) (log2 fold change); higher = less target engagement (more negative = stronger competition)
Settings: THP-1, incubation time: 4 h
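Also: competitive profiling in live THP-1 cells: cysteine peptides tagged with an iodoacetamide desthiobiotin (IA-DTB) probe, intensity after compound treatment relative to DMSO-treated cells.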

| Target | probe-labelled cysteine peptide fold change (10 µM) | probe-labelled cysteine peptide fold change (50 µM) |
| --- | --- | --- |
| CSDE1_O75534_730_CSACNVWR (UniProt O75534) | 0.0262 | -0.27 |
| CST3_P01034_109_TQPNLDNCPFHDQPHLK (UniProt P01034) | -0.359 | -0.43 |
| CRYZL1_O95825_177_VISTACSLEDK (UniProt O95825) | 0.171 | 0.171 |
| CPSF2_Q9P2I0_82_LGLNCAIYATIPVYK (UniProt Q9P2I0) |  | 0.326 |
| CRYZL1_O95825_40_ACALSQINTK (UniProt O95825) | 0.179 | 0.22 |
| CORO1C_Q9ULV4_190_NGSLICTASK (UniProt Q9ULV4) | 0.105 | 0.0895 |
| CTAGE5_O15320_579_GESSCDR (UniProt Q96PC5+O15320) | -0.576 | 0.109 |
| CSDE1_O75534_657_FQLCVLGQNAQTMAYNITPLR (UniProt O75534) | 0.223 | 0.2 |
| CPOX_P36551_373_HCDDSFTPQEK (UniProt P36551) | -0.186 | 0.0439 |
| CSTF1_Q05048_178_TLYDHVDEVTCLAFHPTEQILASGSR (UniProt Q05048) | 0.12 | 0.234 |
| CTNNBL1_Q8WYA6_320_RHNPSTAEEQEMMENLFDSLCSCLMLSSNR (UniProt Q8WYA6) | 0.342 | -0.13 |
| CRYBG3_Q68DQ2_474_HEHLQLPESECSDK (UniProt Q68DQ2) | -0.181 | 0.0162 |
| CSNK1D_P48730_241_MSTPIEVLCK (UniProt P48730) | 0.0154 | -0.0426 |
| CTPS1_P17812_299_LLETCSIALVGK (UniProt P17812) | 0.0506 | 0.127 |
| CTBP1_Q13363_54_DVATVAFCDAQSTQEIHEK (UniProt Q13363) | -0.258 | 0.0269 |
| CRYL1_Q9Y2S2_125_VILSSSTSCLMPSK (UniProt Q9Y2S2) | -0.0791 | -0.537 |
| CTDSPL_O15194_197_ESCVFHR (UniProt O15194) | -0.0178 | 0.0125 |
| CPT2_P23786_326_VDSAVFCLCLDDFPIK (UniProt P23786) | 0.0902 | 0.0791 |
| CPNE2_Q96FN4_48_SDPFCVLFTENNGR (UniProt Q96FN4) | 0.216 | -0.00446 |
| CSE1L_P55060_939_LSTACPGR (UniProt P55060) | -0.114 | -0.0231 |
| CRYZL1_O95825_274_HDIITLLGVGGHWVTTEENLQLDPPDSHCLFLK (UniProt O95825) | 0.104 | 0.255 |
| CTDP1_Q9Y5B0_277_ILSRDECIDPFSK (UniProt Q9Y5B0) | -0.0626 | -0.31 |

| Target | probe-labelled cysteine peptide fold change (10 µM) | probe-labelled cysteine peptide fold change (50 µM) |
| --- | --- | --- |
| CTCF_P49711_497_CDQCDYACR (UniProt P49711) | -0.108 | 0.295 |
| CTPS1_P17812_216_GLGLSPDLVVCR (UniProt P17812) | 0.127 | -0.31 |
| CTPS1_P17812_362_LCSAHGVLVPGGFGVR (UniProt P17812) | 0.0315 | 0.0558 |
| CORO7_P57737_691_IVWVCDGR (UniProt P57737) | 0.135 | -0.245 |
| CPSF1_Q10570_324_ITLDCAQATFISYDK (UniProt Q10570) | 0.134 | 0.335 |
| CREBBP_Q92793_1212_KYEFSPQTLCCYGK (UniProt Q92793) | -0.135 | -0.659 |
| CTNNB1_P35222_466_AGDREDITEPAICALR (UniProt P35222) | 0.16 | 1.07 |
| CSRP1_P21291_58_NLDSTTVAVHGEEIYCK (UniProt P21291) | 0.0278 | -0.263 |
| CORO1B_Q9BR76_345_CEPIVMTVPR (UniProt Q9BR76) | 0.0227 | -0.0517 |
| CTNNA1_P35221_461_MSASQLEALCPQVINAALALAAK (UniProt P35221) | 0.108 | 0.332 |
| CSTF3_Q12996_176_GCVNPMINIEQLWR (UniProt Q12996) | 0.034 | 0.192 |
| CPNE3_O75131_31_SDPLCVLFLNTSGQQWYEVER (UniProt O75131) | 0.353 | 0.253 |
| CTNND1_O60716_394_SNAAAYLQHLCYR (UniProt O60716) | -0.137 | -0.0886 |
| CPNE2_Q96FN4_388+401_VSHEFAINFNPTNPFCSGVDGIAQAYSACLPHIR (UniProt Q96FN4) | 0.402 | 0.37 |
| CSRP1_P21291_34_SCFLCMVCK (UniProt P21291) | 0.1 | -0.00146 |
| CRYZ_Q08257_45_VHACGVNPVETYIR (UniProt Q08257) | 0.0503 | -0.01 |
| CS_O75390_211_LPCVAAK (UniProt O75390) | -0.139 | 0.0879 |
| CORO7_P57737_75_VAHLGCHSDLVTDLDFSPFDDFLLATGSADR (UniProt P57737) | 0.0991 | 0.122 |
| CPSF2_Q9P2I0_34_FLLDCGWDEHFSMDIIDSLRK (UniProt Q9P2I0) | 0.381 | 0.187 |
| CPNE2_Q96FN4_265_DSVPLEFECINPK (UniProt Q96FN4) | -0.207 | -0.295 |
| CPSF1_Q10570_1020_CTAHYVAYHVESK (UniProt Q10570) | 0.0843 | -0.0666 |
| CSTF1_Q05048_310_AHDGAEVCSAIFSK (UniProt Q05048) | 0.0734 | 0.151 |

| Target | probe-labelled cysteine peptide fold change (10 µM) | probe-labelled cysteine peptide fold change (50 µM) |
| --- | --- | --- |
| CSK_P41240_290_SVLGGDCLLK (UniProt P41240) | 0.016 | -0.348 |
| CPSF1_Q10570_532_SIRPQVVTTFELPGCYDMWTVIAPVR (UniProt Q10570) | -0.0794 | 0.105 |
| CTCF_P49711_577_HADNCAGPDGVEGENGGETK (UniProt P49711) | -0.136 | 0.353 |
| CRYBB1_P53674_80_RAEFSGECSNLADR (UniProt P53674) | -0.0898 | 0.0816 |
| CSDE1_O75534_106_MNGQVVCAVPHNLESK (UniProt O75534) | -0.186 | 0.0557 |
| CTCF_P49711_356_CSMCDYASVEVSK (UniProt P49711) | 0.465 | -0.123 |
| CPNE8_Q86YQ8_143_CGTIILTAEELNCCR (UniProt Q86YQ8) | 0.0235 | -0.436 |
| CPSF2_Q9P2I0_311_HLSLCHGLSDLAR (UniProt Q9P2I0) | 0.175 | 0.0266 |
| CPM_P14384_138_KPDCYYSIGR (UniProt P14384) | -0.113 | -0.0372 |
| CORO7_P57737_790_TECDVREVELMR (UniProt P57737) | -0.178 | -0.995 |
| CSDE1_O75534_129_SPAAPGQSPTGSVCYER (UniProt O75534) | 0.1 | 0.0574 |
| CRTAP_O75718_273_DFYLSIADHYVEVLECK (UniProt O75718) | -0.146 | 1.08 |
| CSDE1_O75534_739_VCEGPK (UniProt O75534) | 0.00319 | -0.0903 |
| CPOX_P36551_281_QWWFGGGCDLTPTYLNQEDAVHFHR (UniProt P36551) | 0.151 | 0.314 |
| CTNNB1_P35222_520_NLALCPANHAPLR (UniProt P35222) | -0.273 | 1.23 |
| CTPS1_P17812_30_SCGLHVTSIK (UniProt P17812) | 0.14 | 0.147 |
| CSDE1_O75534_53_LFFHCSQYNGNLQDLK (UniProt O75534) | 0.259 | 0.096 |
| CSK_P41240_31_YNFHGTAEQDLPFCK (UniProt P41240) | 0.0242 | -0.17 |
| CPD_O75976_720_ENSQMFQGRPCK (UniProt O75976) | -0.175 | -0.202 |
| CSNK2B_P67870_114_VYCENQPMLPIGLSDIPGEAMVK (UniProt P67870) | -0.145 | -0.271 |
| CRELD2_Q6UXH1_31_KPTPCHR (UniProt Q6UXH1) | -0.00492 | 0.0721 |
| CTBS_Q01459_281_GAPCSDAAGR (UniProt Q01459) | -0.049 | -0.0117 |

| Target | probe-labelled cysteine peptide fold change (10 µM) | probe-labelled cysteine peptide fold change (50 µM) |
| --- | --- | --- |
| CPSF1_Q10570_532_SIRPQVVTTFELPGCYDMWTVIAPVRK (UniProt Q10570) | 0.343 | 0.139 |
| CSTF1_Q05048_402+415_CIVHSPTNPGFMTCSDDFR (UniProt Q05048) | 0.0401 | -0.0365 |
| CROT_Q9UKG9_210_AFVFDVIHEGCLVTPPELLR (UniProt Q9UKG9) | -0.0907 | -0.163 |
| CRIP1_P50238_56_TLTSGGHAEHEGKPYCNHPCYAAMFGPK (UniProt P50238) | -0.447 | -1.41 |
| COX5B_P10606_93_IVGCICEEDNTSVVWFWLHK (UniProt P10606) | -0.0412 | -0.064 |
| CPQ_Q9Y646_233_IPTACITVEDAEMMSR (UniProt Q9Y646) | -0.0128 | 0.149 |
| CTPS2_Q9NRF8_216_GLGLSPDLIVCR (UniProt Q9NRF8) | 0.594 | 0.585 |
| CSE1L_P55060_85_ICEADR (UniProt P55060) | -0.0868 | 0.138 |
| CTBP1_Q13363_312_DAPNLICTPHAAWYSEQASIEMR (UniProt Q13363) | -0.0203 | -0.149 |
| CPSF1_Q10570_149_CAAMLVYGTR (UniProt Q10570) | 0.0731 | 0.0592 |
| CTAGE5_O15320_131_EATEAQSLEATCEK (UniProt Q96PC5+O15320) | 0.0328 | 0.226 |
| CORO6_Q6QEF8_344_KCEPIIMTVPR (UniProt Q6QEF8) | 0.0964 | -0.129 |
| CPT1A_P50416_586_FCLTYEASMTR (UniProt P50416) | 0.266 | 0.203 |
| CRTAP_O75718_247_AFYECLAACEGSR (UniProt O75718) | 0.403 | 0.476 |
| CSRP1_P21291_25_TVYFAEEVQCEGNSFHK (UniProt P21291) | 2.29e-05 | -0.0826 |
| CPT2_P23786_512_CSEAFVREPSR (UniProt P23786) | -0.113 | -0.366 |
| CRYBG1_Q9Y4K1_1404_ISSVQPICLDSFTGPR (UniProt Q9Y4K1) | 0.198 | 0.134 |
| CTNNA1_P35221_772_TIADHCPDSACK (UniProt P35221) | -0.159 | -0.259 |
| CPSF2_Q9P2I0_335_VVLASQPDLECGFSR (UniProt Q9P2I0) | 0.00772 | 0.0765 |
